# Reference: PubChem BioAssay AID1259405 (NCATS, 2018)
# Assay: 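Silenced genes that increase secreted GFP made by CHO cells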 (primary screen)
# System: Chinese hamster CHO-K1 ovary cells with stable secreted eGFP expression
# Reagent: single siRNA against mouse genes, 0.8 pmol siRNA per well (2 µl of 400 nM stock)
# Timing: 3 days
# Read-out: 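Percent of the per-plate non-targeting control median for intracellular GFP per well by laser scanning cytometry and for cell viability by ATP luminescence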
# Scale: GFP, % of control: higher = more GFP per well, higher productivity; viability (ATP), % of control: higher = more viable cells (more ATP)
# Active means: 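Called active when intracellular GFP, relative to negative control, is at or above 120%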
# Here is a random part of about 50,000 reagents. About 4,000 of them (8%) were called active. 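Mouse siRNA library applied to hamster cells; one well for each siRNA.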 The numbers tell different reagents against one gene apart.
target,reagent no.,"GFP, % of control","viability (ATP), % of control",activity call
Supt6,1,85.9,104,inactive
Supt6,2,63.4,74.4,inactive
Supt6,3,37.3,36.4,inactive
Pdlim5,1,65.2,65.9,inactive
Pdlim5,2,66.4,84.2,inactive
Pdlim5,3,108,62.4,inactive
Gsr,1,80.1,85.6,inactive
Gsr,2,64,68.6,inactive
Gsr,3,81.9,73.1,inactive
Mtmr6,1,88.3,87.1,inactive
Mtmr6,2,61.1,70.6,inactive
Mtmr6,3,98.8,107,inactive
Idh1,1,147,110,active
Idh1,2,50.1,67.3,inactive
Idh1,3,89.4,89.5,inactive
Aldh18a1,1,91.1,96.5,inactive
Aldh18a1,2,94.1,94.8,inactive
Aldh18a1,3,123,92.7,active
Fgd4,1,63.5,106,inactive
Fgd4,2,57.1,63.9,inactive
Fgd4,3,79.6,51.1,inactive
Mtnr1b,1,55.3,73.9,inactive
Mtnr1b,2,59.4,72.7,inactive
Mtnr1b,3,112,68.9,inactive
Klk1b22,1,134,113,active
Klk1b22,2,94.1,60.3,inactive
Klk1b22,3,92.3,71.5,inactive
Rnf121,1,91.6,87.7,inactive
Rnf121,2,75.4,72.4,inactive
Rnf121,3,60.3,87.9,inactive
Or56a5,1,37.1,67.3,inactive
Or56a5,2,78.6,52,inactive
Or56a5,3,47.6,102,inactive
Map2k6,1,153,130,active
Aass,1,41.5,30.3,inactive
Aass,2,65.8,53.7,inactive
Aass,3,75.6,82.3,inactive
Spink8,1,59.1,81.4,inactive
Spink8,2,86.6,46.7,inactive
Spink8,3,124,129,active
Zfp454,1,71.2,70.9,inactive
Zfp454,2,44.3,45.5,inactive
Zfp454,3,90.5,94.6,inactive
Atxn1,1,92.5,117,inactive
Atxn1,2,69.6,83.9,inactive
Atxn1,3,111,41.3,inactive
Pcdhb18,1,85.1,90.3,inactive
Pcdhb18,2,84,69.7,inactive
Ccdc3,1,65.5,64.3,inactive
Ccdc3,2,86.6,83.8,inactive
Ccdc3,3,113,114,inactive
Il12a,1,82.2,55.4,inactive
Il12a,2,48.7,58.5,inactive
Il12a,3,59.3,89.2,inactive
Duxbl1,1,60.6,94.7,inactive
Duxbl1,2,79.1,84.5,inactive
Duxbl1,3,57.5,37,inactive

Reformatted: 9 of the entries above
target	reagent no.	GFP, % of control	viability (ATP), % of control	activity call
Mtmr6	2	61.1	70.6	inactive
Mtmr6	3	98.8	107	inactive
Idh1	1	147	110	active
Idh1	2	50.1	67.3	inactive
Idh1	3	89.4	89.5	inactive
Aldh18a1	1	91.1	96.5	inactive
Aldh18a1	2	94.1	94.8	inactive
Aldh18a1	3	123	92.7	active
Fgd4	1	63.5	106	inactive
